# Source: the supplement of paper PMC8728848
# This is one part of the list.
# Assays:
# Experiment in all cases: glycan array binding signal (z-score within array); higher = stronger binding
# Conditions in all cases: glycan notation: IUPAC condensed, linker removed
# [1] = target: Neu5Ac(a2-6)Gal(b1-4)GlcNAc(b1-2)Man(a1-3)[GlcNAc(b1-4)][Neu5Ac(a2-6)Gal(b1-4)GlcNAc(b1-2)Man(a1-6)]Man(b1-4)GlcNAc(b1-4)GlcNAc
# In short: (§1)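 The binding signal is a Z-score computed within each array and averaged over linkers. Arrays of the same protein sequence at different concentrations or buffers were also averaged together. Data originate from 3228 arrays in the Consortium for Functional Glycomics database, kept only where the protein sequence was available.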
# [2] = target: Neu5Ac(a2-6)Gal(b1-4)GlcNAc(b1-2)Man(a1-3)[Man(a1-6)]Man(b1-4)GlcNAc(b1-4)GlcNAc
# In short: as §1
# [3] = target: Neu5Ac(a2-6)Gal(b1-4)GlcNAc(b1-2)Man(a1-3)[Neu5Ac(a2-3)Gal(b1-4)GlcNAc(b1-2)Man(a1-6)]Man(b1-4)GlcNAc(b1-4)GlcNAc
# In short: as §1
# [4] = target: Neu5Ac(a2-6)Gal(b1-4)GlcNAc(b1-2)Man(a1-3)[Neu5Ac(a2-6)Gal(b1-4)GlcNAc(b1-2)Man(a1-6)]Man(b1-4)GlcNAc(b1-4)GlcNAc
# In short: as §1
# [5] = target: Neu5Ac(a2-6)Gal(b1-4)GlcNAc(b1-2)Man(a1-3)[Neu5Ac(a2-6)Gal(b1-4)GlcNAc(b1-2)Man(a1-6)]Man(b1-4)GlcNAc(b1-4)[Fuc(a1-6)]GlcNAc
# In short: as §1
# [6] = target: Neu5Ac(a2-6)Gal(b1-4)GlcNAc(b1-2)Man(a1-6)Man(b1-4)GlcNAc(b1-4)GlcNAc
# In short: as §1
# [7] = target: Neu5Ac(a2-6)Gal(b1-4)GlcNAc(b1-2)Man(a1-6)[Gal(b1-4)GlcNAc(b1-2)Man(a1-3)]Man(b1-4)GlcNAc(b1-4)GlcNAc
# In short: as §1
# [8] = target: Neu5Ac(a2-6)Gal(b1-4)GlcNAc(b1-2)Man(a1-6)[GlcNAc(b1-2)Man(a1-3)]Man(b1-4)GlcNAc(b1-4)GlcNAc
# In short: as §1
# [9] = target: Neu5Ac(a2-6)Gal(b1-4)GlcNAc(b1-2)Man(a1-6)[Man(a1-3)]Man(b1-4)GlcNAc(b1-4)GlcNAc
# In short: as §1
# [10] = target: Neu5Ac(a2-6)Gal(b1-4)GlcNAc(b1-2)[Neu5Ac(a2-6)Gal(b1-4)GlcNAc(b1-4)]Man(a1-3)[GlcNAc(b1-4)][Neu5Ac(a2-6)Gal(b1-4)GlcNAc(b1-2)[Neu5Ac(a2-6)Gal(b1-4)GlcNAc(b1-6)]Man(a1-6)]Man(b1-4)GlcNAc(b1-4)GlcNAc
# In short: as §1
# [11] = target: Neu5Ac(a2-6)Gal(b1-4)GlcNAc(b1-2)[Neu5Ac(a2-6)Gal(b1-4)GlcNAc(b1-4)]Man(a1-3)[GlcNAc(b1-4)][Neu5Ac(a2-6)Gal(b1-4)GlcNAc(b1-4)Man(a1-6)]Man(b1-4)GlcNAc(b1-4)GlcNAc
# In short: as §1
# [12] = target: Neu5Ac(a2-6)Gal(b1-4)GlcNAc(b1-2)[Neu5Ac(a2-6)Gal(b1-4)GlcNAc(b1-6)]Man(a1-6)[Neu5Ac(a2-6)Gal(b1-4)GlcNAc(b1-2)Man(a1-3)][GlcNAc(b1-4)]Man(b1-4)GlcNAc(b1-4)GlcNAc
# In short: as §1
# [13] = target: Neu5Ac(a2-6)Gal(b1-4)GlcNAc(b1-3)Gal(b1-3)GlcNAc
# In short: as §1
# [14] = target: Neu5Ac(a2-6)Gal(b1-4)GlcNAc(b1-3)Gal(b1-4)GlcNAc
# In short: as §1
# [15] = target: Neu5Ac(a2-6)Gal(b1-4)GlcNAc(b1-3)Gal(b1-4)GlcNAc(b1-2)Man(a1-3)[Neu5Ac(a2-6)Gal(b1-4)GlcNAc(b1-3)Gal(b1-4)GlcNAc(b1-2)Man(a1-6)]GalNAc
# In short: as §1
# [16] = target: Neu5Ac(a2-6)Gal(b1-4)GlcNAc(b1-3)Gal(b1-4)GlcNAc(b1-3)Gal(b1-4)GlcNAc
# In short: as §1
# [17] = target: Neu5Ac(a2-6)Gal(b1-4)GlcNAc(b1-3)Gal(b1-4)GlcNAc(b1-3)Gal(b1-4)GlcNAc(b1-2)Man(a1-3)[Neu5Ac(a2-6)Gal(b1-4)GlcNAc(b1-3)Gal(b1-4)GlcNAc(b1-3)Gal(b1-4)GlcNAc(b1-2)Man(a1-6)]GalNAc
# In short: as §1
# [18] = target: Neu5Ac(a2-6)Gal(b1-4)GlcNAc(b1-3)Gal(b1-4)GlcNAc(b1-3)GalNAc
# In short: as §1
# [19] = target: Neu5Ac(a2-6)Gal(b1-4)GlcNAc(b1-3)Gal(b1-4)GlcNAc(b1-3)[Neu5Ac(a2-6)Gal(b1-4)GlcNAc(b1-3)Gal(b1-4)GlcNAc(b1-6)]GalNAc
# In short: as §1
# [20] = target: Neu5Ac(a2-6)Gal(b1-4)GlcNAc(b1-3)Gal(b1-4)GlcNAc(b1-6)[Gal(b1-3)]GalNAc
# In short: as §1
# [21] = target: Neu5Ac(a2-6)Gal(b1-4)GlcNAc(b1-3)Gal(b1-4)[Fuc(a1-3)]GlcNAc(b1-3)Gal(b1-4)[Fuc(a1-3)]GlcNAc
# In short: as §1
# [22] = target: Neu5Ac(a2-6)Gal(b1-4)GlcNAc(b1-3)GalNAc
# In short: as §1
# [23] = target: Neu5Ac(a2-6)Gal(b1-4)GlcNAc(b1-3)[Neu5Ac(a2-6)Gal(b1-4)GlcNAc(b1-6)]GalNAc
# In short: as §1
# [24] = target: Neu5Ac(a2-6)Gal(b1-4)GlcNAc(b1-6)GalNAc
# In short: as §1
# [25] = target: Neu5Ac(a2-6)Gal(b1-4)GlcNAc(b1-6)[Gal(b1-3)GlcNAc(b1-3)]Gal(b1-4)Glc
# In short: as §1
# [26] = target: Neu5Ac(a2-6)Gal(b1-4)GlcNAc(b1-6)[Gal(b1-3)]GalNAc
# In short: as §1
# [27] = target: Neu5Ac(a2-6)Gal(b1-4)GlcNAc6S
# In short: as §1
# Neu5Ac(a2-6)GalNAc = target: Neu5Ac(a2-6)GalNAc
# In short: as §1
# [28] = target: Neu5Ac(a2-6)GalNAc(b1-4)GlcNAc
# In short: as §1
# [29] = target: Neu5Ac(a2-6)GalNAc(b1-4)GlcNAc6S
# In short: as §1
# [30] = target: Neu5Ac(a2-6)GlcNAc(b1-4)GlcNAc
# In short: as §1
binder,measurement,setting,value
"HA-61200 (Pseudomonas aeruginosa), Q02SP8_PSEAB (protein) MNKCYALVWNVSQGCWNVVSEGSRRRGKPAGAKAAIASVLALLGATALAPAYALPSGGTVVGGSANGEIHLSGGNSLSVNQKVDKLIANWDSFSVAAGERVIFNQPSSSSIALNRVIGTKASDIQGRIDANGQVFLVNPNGVLFGRGAQVNVGGLVASTLDITDAEFNGNSSRYRFTGPSTNGVLNHGGAITAAEGGSIALLGAQVDNRGTVLAQMGGVGLGAGSDLTLNFDGNKLLDIRVDAGVANALASNGGLLKADGGRVLMAARTANALLNTVVNSQGAIEARSLRGKNGRIVLDG",glycan array binding signal (z-score),[1],-0.028
same,glycan array binding signal (z-score),[2],-0.409
same,glycan array binding signal (z-score),[3],-0.204
same,glycan array binding signal (z-score),[4],-0.288
same,glycan array binding signal (z-score),[5],0.232
same,glycan array binding signal (z-score),[6],-0.365
same,glycan array binding signal (z-score),[7],0.627
same,glycan array binding signal (z-score),[8],-0.102
same,glycan array binding signal (z-score),[9],-0.453
same,glycan array binding signal (z-score),[10],-0.027
same,glycan array binding signal (z-score),[11],-0.07
same,glycan array binding signal (z-score),[12],-0.498
same,glycan array binding signal (z-score),[13],-0.904
same,glycan array binding signal (z-score),[14],0.233
same,glycan array binding signal (z-score),[15],-0.431
same,glycan array binding signal (z-score),[16],0.425
same,glycan array binding signal (z-score),[17],4.49
same,glycan array binding signal (z-score),[18],-0.3
same,glycan array binding signal (z-score),[19],-0.534
same,glycan array binding signal (z-score),[20],1.3
same,glycan array binding signal (z-score),[21],0.975
same,glycan array binding signal (z-score),[22],0.793
same,glycan array binding signal (z-score),[23],-0.668
same,glycan array binding signal (z-score),[24],-0.169
same,glycan array binding signal (z-score),[25],-0.627
same,glycan array binding signal (z-score),[26],0.199
same,glycan array binding signal (z-score),[27],-1.15
same,glycan array binding signal (z-score),Neu5Ac(a2-6)GalNAc,0.863
same,glycan array binding signal (z-score),[28],-0.744
same,glycan array binding signal (z-score),[29],0.146
same,glycan array binding signal (z-score),[30],-0.508

# Nothing new here: an excerpt of the list.
binder,measurement,setting,value
"HA-61200 (Pseudomonas aeruginosa), Q02SP8_PSEAB (protein) MNKCYALVWNVSQGCWNVVSEGSRRRGKPAGAKAAIASVLALLGATALAPAYALPSGGTVVGGSANGEIHLSGGNSLSVNQKVDKLIANWDSFSVAAGERVIFNQPSSSSIALNRVIGTKASDIQGRIDANGQVFLVNPNGVLFGRGAQVNVGGLVASTLDITDAEFNGNSSRYRFTGPSTNGVLNHGGAITAAEGGSIALLGAQVDNRGTVLAQMGGVGLGAGSDLTLNFDGNKLLDIRVDAGVANALASNGGLLKADGGRVLMAARTANALLNTVVNSQGAIEARSLRGKNGRIVLDG",glycan array binding signal (z-score),[22],0.793
same,glycan array binding signal (z-score),[23],-0.668
